Experimental data reported in publication doi:10.1101/2021.10.07.463531.
Residue numbers refer to the chain shown, from its start. These are yes or no findings as the source states them, for the method shown. For part of these data: Binding seen in cells or lysates may run through a third protein. Some results given as binding are weak or reduced against the parent protein; the word gives no strength. Where a sequence is shown, tags or fusion partners need not be part of it. One block for each binder: values may come before it.

Experiments:
[1] = biological target: fusion of ANKS3 with the DNA-binding domain of Gal4 (Gal4-BD) (UniProt Q6ZW76); experiment: two-hybrid
[2] = biological target: T1, GST-Bicc1 (full-length, wild type) (UniProt Q99MQ1); experiment: pull-down
T1 sequence: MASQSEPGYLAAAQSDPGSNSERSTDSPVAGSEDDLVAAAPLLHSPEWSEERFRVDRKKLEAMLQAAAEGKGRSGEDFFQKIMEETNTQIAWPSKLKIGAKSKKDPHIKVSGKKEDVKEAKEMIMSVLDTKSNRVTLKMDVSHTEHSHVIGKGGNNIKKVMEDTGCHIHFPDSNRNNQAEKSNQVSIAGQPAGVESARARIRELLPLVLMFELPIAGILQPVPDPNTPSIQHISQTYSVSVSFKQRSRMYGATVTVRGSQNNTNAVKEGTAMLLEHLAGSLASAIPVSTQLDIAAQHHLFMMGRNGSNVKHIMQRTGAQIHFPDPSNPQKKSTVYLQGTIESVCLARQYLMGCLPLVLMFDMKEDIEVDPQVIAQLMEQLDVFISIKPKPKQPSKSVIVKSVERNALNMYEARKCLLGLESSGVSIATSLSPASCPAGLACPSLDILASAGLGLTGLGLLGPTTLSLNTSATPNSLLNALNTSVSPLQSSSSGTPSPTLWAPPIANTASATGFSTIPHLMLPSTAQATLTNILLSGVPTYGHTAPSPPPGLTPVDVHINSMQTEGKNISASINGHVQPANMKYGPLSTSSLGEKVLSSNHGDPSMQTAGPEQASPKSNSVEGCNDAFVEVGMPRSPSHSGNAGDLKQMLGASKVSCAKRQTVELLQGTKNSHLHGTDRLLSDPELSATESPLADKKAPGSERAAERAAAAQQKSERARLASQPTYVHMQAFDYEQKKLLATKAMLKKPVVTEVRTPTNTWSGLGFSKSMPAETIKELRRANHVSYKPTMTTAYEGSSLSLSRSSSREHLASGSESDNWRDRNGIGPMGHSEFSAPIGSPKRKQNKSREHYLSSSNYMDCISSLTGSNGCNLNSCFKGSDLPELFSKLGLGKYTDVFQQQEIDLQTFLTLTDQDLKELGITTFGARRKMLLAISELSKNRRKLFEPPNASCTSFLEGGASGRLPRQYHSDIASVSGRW

[3] = biological target: T2, HA-Bicc1 (full-length, wild type) (UniProt Q99MQ1); experiment: co-IP
T2 sequence: T1 sequence

ANKS3-Flag = biological target: T3, ANKS3-Flag (UniProt Q6ZW76); experiment: pull-down
T3 sequence: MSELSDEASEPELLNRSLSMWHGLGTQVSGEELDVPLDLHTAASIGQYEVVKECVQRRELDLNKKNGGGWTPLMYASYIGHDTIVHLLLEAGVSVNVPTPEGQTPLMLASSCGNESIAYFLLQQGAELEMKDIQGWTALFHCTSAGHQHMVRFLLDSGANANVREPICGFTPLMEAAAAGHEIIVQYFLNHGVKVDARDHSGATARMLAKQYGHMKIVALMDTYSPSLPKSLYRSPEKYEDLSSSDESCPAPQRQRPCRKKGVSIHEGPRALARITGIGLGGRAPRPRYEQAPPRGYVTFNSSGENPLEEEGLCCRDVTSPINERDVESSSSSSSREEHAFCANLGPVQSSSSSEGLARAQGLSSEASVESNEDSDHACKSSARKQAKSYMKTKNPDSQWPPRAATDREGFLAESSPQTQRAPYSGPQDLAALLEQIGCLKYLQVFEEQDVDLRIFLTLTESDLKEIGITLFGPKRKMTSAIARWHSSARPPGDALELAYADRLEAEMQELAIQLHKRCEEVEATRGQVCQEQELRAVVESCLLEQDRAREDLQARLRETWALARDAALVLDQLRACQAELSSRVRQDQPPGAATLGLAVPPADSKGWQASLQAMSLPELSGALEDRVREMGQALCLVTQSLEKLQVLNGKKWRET

HA-Bicc1 mutD = biological target: T4, HA-Bicc1 mutD (UniProt Q99MQ1); experiment: co-IP
T4 sequence: T1 sequence with D913A, K915A, E916A

B2: ANKS3-Flag (protein, UniProt Q6ZW76 1-656)
chain: T3 sequence
binding [2]: binds
binding [3]: binds

B4: GFP-Bicc1 (protein, UniProt Q99MQ1 1-977)
chain: T1 sequence
binding (HA-Bicc1 mutD): binds
binding [3]: binds

Further lines, results first:

binding [1]: binds
B1: fusion of ANKS3 with the DNA-binding domain of Gal4 (Gal4-BD) (protein, UniProt Q6ZW76 1-656)
chain: T3 sequence

binding (ANKS3-Flag): binds
B3: v5-ANKS6 (protein, UniProt Q68DC2 1-871)
chain: MGEGGLPPAFQLLLRACDQGDTETARRLLEPGAAEPAERGAEPEAGAEPAGAEVAGPGAAAAGAVGAPVPVDCSDEAGNTALQFAAAGGHEPLVRFLLRRGASVNSRNHYGWSALMQAARFGHVSVAHLLLDHGADVNAQNRLGASVLTVASRGGHLGVVKLLLEAGAFVDHHHPSGEQLGLGGSRDEPLDITALMAAIQHGHEAVVRLLMEWGADPNHAARTVGWSPLMLAALTGRLGVAQQLVEKGANPDHLSVLEKTAFEVALDCKHRDLVDYLDPLTTVRPKTDEEKRRPDIFHALKMGNFQLVKEIADEDPSHVNLVNGDGATPLMLAAVTGQLALVQLLVERHADVDKQDSVHGWTALMQATYHGNKEIVKYLLNQGADVTLRAKNGYTAFDLVMLLNDPDTELVRLLASVCMQVNKDKGRPSHQPPLPHSKVRQPWSIPVLPDDKGGLKSWWNRMSNRFRKLKLMQTLPRGLSSNQPLPFSDEPEPALDSTMRAAPQDKTSRSALPDAAPVTKDNGPGSTRGEKEDTLLTTMLRNGAPLTRLPSDKLKAVIPPFLPPSSFELWSSDRSRTRHNGKADPMKTALPQRASRGHPVGGGGTDTTPVRPVKFPSLPRSPASSANSGNFNHSPHSSGGSSGVGVSRHGGELLNRSGGSIDNVLSQIAAQRKKAAGLLEQKPSHRSSPVGPAPGSSPSELPASPAGGSAPVGKKLETSKRPPSGTSTTSKSTSPTLTPSPSPKGHTAESSVSSSSSHRQSKSSGGSSSGTITDEDELTGILKKLSLEKYQPIFEEQEVDMEAFLTLTDGDLKELGIKTDGSRQQILAAISELNAGKGRERQILQETIHNFHSSFESSASNTRAPGNSPCA
